Experimental data reported in PubChem BioAssay AID210 (DTP/NCI, 2004).
The list does not hold the whole screen: it gathers some chemical classes. Other doses and runs of a compound may be missing. T/C: endpoint of the treated group in % of that of the vehicle group. For survival time, this PubChem deposit counts one and a half times the control or more as active, and values a quarter to a half above the control carry no call in these data; other NCI protocols may use other cut-offs. Schedule codes are those of the source, read here as Q, the interval in days (D) or hours (H), X, the number of doses. Some entries show no survivor count and are marked so; the dose need not have been tolerated.

Test system: CD2F1 mice, ip Colon 26 adenocarcinoma, median survival T/C
Assay: NCI In Vivo Anticancer Drug Screen. Data for tumor model Colon 26 Adenocarcinoma (intraperitoneal) in CD2F1 (CDF1) mice
Settings: T/C endpoint: median survival time, higher T/C = longer survival
Procedure: The antitumor activity of compounds was measured in mice bearing transplantable tumors. Survival or tumor size were measured and the results are expressed as the measurement made in the treated group (T) divided by the measurement made in the vehicle treated control group (C). The tumor model used in this assay is Colon 26 Adenocarcinoma (intraperitoneal) in CD2F1 (CDF1) mice

## CC(=O)O[C@@H]1[C@@H](O)[C@H]2O[C@@H]3C=C(C)C(=O)[C@@H](O)[C@]3(CO)[C@]1(C)[C@]21CO1
dose: 0.4 mg/kg/injection, schedule: Q04DX003 (ip), vehicle: saline
  T/C: 97 % of control [survivor count not shown]
dose: 0.8 mg/kg/injection, schedule: Q04DX003 (ip), vehicle: saline
  T/C: 105 % of control [survivor count not shown]
dose: 1.6 mg/kg/injection, schedule: Q04DX003 (ip), vehicle: saline
  T/C: 120 % of control [survivor count not shown]
dose: 3.2 mg/kg/injection, schedule: Q04DX003 (ip), vehicle: saline
  T/C: 120 % of control [survivor count not shown]

## CC(=O)OCC12CC(O)C(C)=CC1OC1C(O)C(OC(C)=O)C2(C)C12CO2 (stereo not drawn)
dose: 0.31 mg/kg/injection, schedule: Q04DX003 (ip), vehicle: saline
  T/C: 110 % of control [survivor count not shown]
dose: 0.62 mg/kg/injection, schedule: Q04DX003 (ip), vehicle: saline
  T/C: 109 % of control [survivor count not shown]
dose: 1.25 mg/kg/injection, schedule: Q04DX003 (ip), vehicle: saline
  T/C: 112 % of control [survivor count not shown]
dose: 2.5 mg/kg/injection, schedule: Q04DX003 (ip), vehicle: saline
  T/C: 117 % of control [survivor count not shown]
dose: 5.0 mg/kg/injection, schedule: Q04DX003 (ip), vehicle: saline
  T/C: 119 % of control [survivor count not shown]
dose: 10.0 mg/kg/injection, schedule: Q04DX003 (ip), vehicle: saline
  T/C: 133 % of control [survivor count not shown]

## C[C@@H](O)[C@H]1/C=C/C=C\C(=O)O[C@@H]2C[C@H]3O[C@@H]4[C@@H]5OC5(C)CCC4(COC(=O)[C@H]4O[C@]4(C)[C@@H](O)CO1)[C@]2(C)[C@]31CO1 (stereo partly drawn)
dose: 1.94 mg/kg/injection, schedule: Q04DX003 (sc), vehicle: other
  T/C: 102 % of control [survivor count not shown]
dose: 3.24 mg/kg/injection, schedule: Q04DX003 (ip), vehicle: other
  T/C: 123 % of control [survivor count not shown]
dose: 3.24 mg/kg/injection, schedule: Q04DX003 (sc), vehicle: other
  T/C: 96 % of control [survivor count not shown]
dose: 5.4 mg/kg/injection, schedule: Q04DX003 (ip), vehicle: other
  T/C: 123 % of control [survivor count not shown]
dose: 5.4 mg/kg/injection, schedule: Q04DX003 (sc), vehicle: other
  T/C: 98 % of control [survivor count not shown]
dose: 9.0 mg/kg/injection, schedule: Q04DX003 (ip), vehicle: other
  T/C: 118 % of control [survivor count not shown]

## CC(=O)OCC12CCC(C)=CC1OC1C(O)C(OC(C)=O)C2(C)C12CO2 (stereo not drawn)
dose: 0.25 mg/kg/injection, schedule: Q04DX003 (ip), vehicle: saline
  T/C: 115 % of control [survivor count not shown]
dose: 0.5 mg/kg/injection, schedule: Q04DX003 (ip), vehicle: saline
  T/C: 106 % of control [survivor count not shown]
dose: 1.0 mg/kg/injection, schedule: Q04DX003 (ip), vehicle: saline
  T/C: 99 % of control [survivor count not shown]
dose: 2.0 mg/kg/injection, schedule: Q04DX003 (ip), vehicle: saline
  T/C: 104 % of control [survivor count not shown]
dose: 2.59 mg/kg/injection, schedule: Q04DX003 (sc), vehicle: saline + alcohol
  T/C: 105 % of control [survivor count not shown]
dose: 4.0 mg/kg/injection, schedule: Q04DX003 (ip), vehicle: saline
  T/C: 135 % of control [survivor count not shown]
dose: 4.32 mg/kg/injection, schedule: Q04DX003 (ip), vehicle: other
  T/C: 100 % of control [survivor count not shown]
dose: 4.32 mg/kg/injection, schedule: Q04DX003 (sc), vehicle: saline + alcohol
  T/C: 100 % of control [survivor count not shown]
dose: 7.2 mg/kg/injection, schedule: Q04DX003 (ip), vehicle: other
  T/C: 95 % of control [survivor count not shown]

## CC1=CC2OC3CC4OC(=O)/C=C/C=C/C(C(C)O)OCC(O)C(C)CC(=O)OCC2(CC1O)C4(C)C31CO1 (stereo not drawn)
dose: 648.0 micrograms/kg/injection, schedule: Q04DX003 (ip), vehicle: other
  T/C: 106 % of control [survivor count not shown]
dose: 1080.0 micrograms/kg/injection, schedule: Q04DX003 (ip), vehicle: other
  T/C: 95 % of control [survivor count not shown]

## CC(=O)OC[C@]12C[C@H](OC(=O)CC(C)C)C(C)=C[C@H]1OC1[C@H](O)[C@@H](OC(C)=O)[C@@]2(C)[C@@]12CO2
dose: 1.3 mg/kg/injection, schedule: Q04DX003 (ip), vehicle: other
  T/C: 100 % of control [survivor count not shown]
dose: 2.16 mg/kg/injection, schedule: Q04DX003 (ip), vehicle: other
  T/C: 102 % of control [survivor count not shown]
dose: 3.6 mg/kg/injection, schedule: Q04DX003 (ip), vehicle: other
  T/C: 101 % of control [survivor count not shown]
dose: 648.0 micrograms/kg/injection, schedule: Q04DX003 (sc), vehicle: saline + alcohol
  T/C: 100 % of control [survivor count not shown]
dose: 1080.0 micrograms/kg/injection, schedule: Q04DX003 (sc), vehicle: saline + alcohol
  T/C: 100 % of control [survivor count not shown]
dose: 1800.0 micrograms/kg/injection, schedule: Q04DX003 (sc), vehicle: saline + alcohol
  T/C: 102 % of control [survivor count not shown]
